Reference: publication PMC2033742, “Comparison of ability of protein kinase C inhibitors to arrest cell growth and to alter cellular protein kinase C localisation” (British Journal of Cancer, 1995)

What was measured:
[1] = tested on: A549 lung carcinoma cells; experiment: Cell growth inhibition by cell counting (Coulter Counter), A549; assay type: cell-based; details: Homo sapiens; A549 and MCF-7 cells; read-out: IC50 values for growth arrest (stronger growth inhibitors)
PKC-depleted A549 cells = experiment: [3H]Tdr incorporation into PKC-depleted (bryostatin 1 pretreated) A549 cells; assay type: cell-based; details: Homo sapiens, A549, read-out: IC50 for inhibition of [3H]Tdr incorporation

Row | SMILES | IC50 [1] [nM] | IC50 (PKC-depleted A549 cells) [nM]
1 | CO[C@@H]1[C@H](N(C)C(=O)c2ccccc2)C[C@H]2O[C@]1(C)n1c3ccccc3c3c4c(c5c6ccccc6n2c5c31)C(=O)NC4 [CGP 41251] | < 1000 | –
2 | CN[C@@H]1C[C@H]2O[C@@](C)([C@@H]1OC)n1c3ccccc3c3c4c(c5c6ccccc6n2c5c31)C(=O)NC4 [Staurosporine, staurosporine] | – | 0.5
